{"source": "PubChem BioAssay AID652259 (Drosophila RNAi Screening Center, 2013)", "screen": "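Knock-downs that push a Wingless-driven reporter up or down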 (primary screen)", "cell system": "Drosophila clone 8 imaginal disc epithelial cells", "reagent": "long dsRNA against Drosophila genes", "conditions": "pathway stimulated by co-transfected Wingless expression plasmid", "detection": "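Dual luciferase reads per well after Wingless plasmid stimulation: reporter firefly light and Renilla control light; activity is firefly divided by Renilla, a ratio not deposited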", "reading the numbers": "firefly reporter light: higher = more Wg reporter light, before normalisation; Renilla control light: higher = more transfected or surviving cells", "hit rule": "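Strong candidates differ from their plate mean by at least two out of four per-plate statistical tests; weak candidates meet just one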", "calls": "active = candidate regulator (raises or lowers reporter); inactive = not a candidate", "note": "The deposit covers about 22,000 reagents; shown is a random part of those that have a named target and a result. Of all reagents, 233 (1.1%) are marked active. 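Light values are raw, unnormalised plate reads; the ratio scores behind the reporter calls were not deposited.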 Names joined by + are all predicted targets of the reagent. No sequences are given here. Not stated in the record: the amount of reagent, the time to read-out, the dose of the treatment."}
{"Gene":"Tengl1 (GeneID 318883)","dsRNA":"DRSC00481","firefly reporter light, replicate 1":1497,"firefly reporter light, replicate 2":5660,"Renilla control light, replicate 1":816,"Renilla control light, replicate 2":2423,"call":"inactive"}
{"Gene":"Idh (GeneID 44291)","dsRNA":"DRSC10779","firefly reporter light, replicate 1":4152,"Renilla control light, replicate 1":2305,"call":"inactive"}
{"Gene":"CG9706 (GeneID 39876)","dsRNA":"DRSC11095","firefly reporter light, replicate 1":4809,"Renilla control light, replicate 1":2198,"call":"inactive"}
{"Gene":"CG32262 (GeneID 38445)","dsRNA":"DRSC08165","firefly reporter light, replicate 1":6373,"Renilla control light, replicate 1":2914,"call":"inactive"}
{"Gene":"AsnRS (GeneID 35194)","dsRNA":"DRSC01990","firefly reporter light, replicate 1":7846,"Renilla control light, replicate 1":2388,"call":"inactive"}
{"Gene":"fan (GeneID 43926)","dsRNA":"DRSC10930","firefly reporter light, replicate 1":1698,"firefly reporter light, replicate 2":4753,"Renilla control light, replicate 1":1080,"Renilla control light, replicate 2":2508,"call":"inactive"}
{"Gene":"lncRNA:CR41443 (GeneID 12798069)","dsRNA":"DRSC07733","firefly reporter light, replicate 1":20572,"Renilla control light, replicate 1":14348,"call":"inactive"}
{"Gene":"CG4497 (GeneID 34001)","dsRNA":"DRSC02754","firefly reporter light, replicate 1":9341,"Renilla control light, replicate 1":4291,"call":"inactive"}
{"Gene":"CG4995 (GeneID 34390)","dsRNA":"DRSC02801","firefly reporter light, replicate 1":16768,"Renilla control light, replicate 1":5018,"call":"inactive"}
{"Gene":"CG13299 (GeneID 38724)","dsRNA":"DRSC09973","firefly reporter light, replicate 1":1425,"firefly reporter light, replicate 2":10261,"Renilla control light, replicate 1":1447,"Renilla control light, replicate 2":3754,"call":"inactive"}
{"Gene":"AANATL3 (GeneID 35285)","dsRNA":"DRSC02089","firefly reporter light, replicate 1":2385,"firefly reporter light, replicate 2":4932,"Renilla control light, replicate 1":763,"Renilla control light, replicate 2":2307,"call":"inactive"}
{"Gene":"CG12511 (GeneID 33797)","dsRNA":"DRSC02171","firefly reporter light, replicate 1":3285,"firefly reporter light, replicate 2":8599,"Renilla control light, replicate 1":1409,"Renilla control light, replicate 2":4000,"call":"inactive"}
{"Gene":"Kif3C (GeneID 43820)","dsRNA":"DRSC17209","firefly reporter light, replicate 1":20448,"Renilla control light, replicate 1":15957,"call":"inactive"}
{"Gene":"Kif3C (GeneID 43820)","dsRNA":"DRSC17210","firefly reporter light, replicate 1":22038,"Renilla control light, replicate 1":18823,"call":"inactive"}
{"Gene":"CG42361 (GeneID 37936)","dsRNA":"DRSC04391","firefly reporter light, replicate 1":2570,"firefly reporter light, replicate 2":9830,"Renilla control light, replicate 1":824,"Renilla control light, replicate 2":2304,"call":"inactive"}
{"Gene":"Ubr3 (GeneID 31713)","dsRNA":"DRSC17987","firefly reporter light, replicate 1":2300,"firefly reporter light, replicate 2":7507,"Renilla control light, replicate 1":1029,"Renilla control light, replicate 2":2820,"call":"inactive"}
{"Gene":"Ubr3 (GeneID 31713)","dsRNA":"DRSC17997","firefly reporter light, replicate 1":16467,"Renilla control light, replicate 1":7083,"call":"inactive"}
{"Gene":"CG13494 (GeneID 37497)","dsRNA":"DRSC04139","firefly reporter light, replicate 1":3402,"firefly reporter light, replicate 2":11696,"Renilla control light, replicate 1":1209,"Renilla control light, replicate 2":3628,"call":"inactive"}
{"Gene":"Sidpn (GeneID 35168)","dsRNA":"DRSC02056","firefly reporter light, replicate 1":13564,"Renilla control light, replicate 1":2441,"call":"inactive"}
{"Gene":"CG13984 (GeneID 33879)","dsRNA":"DRSC02316","firefly reporter light, replicate 1":2826,"firefly reporter light, replicate 2":10342,"Renilla control light, replicate 1":216,"Renilla control light, replicate 2":4154,"call":"inactive"}
{"Gene":"RpL17 (GeneID 31613)","dsRNA":"DRSC18293","firefly reporter light, replicate 1":2630,"firefly reporter light, replicate 2":8996,"Renilla control light, replicate 1":551,"Renilla control light, replicate 2":1932,"call":"inactive"}
{"Gene":"CG44000 + CG33995 + CG44001","dsRNA":"DRSC00853","firefly reporter light, replicate 1":22502,"Renilla control light, replicate 1":10496,"call":"inactive"}
{"Gene":"CG44000 + CG33995 + CG44001","dsRNA":"DRSC02898","firefly reporter light, replicate 1":16393,"Renilla control light, replicate 1":8212,"call":"inactive"}
{"Gene":"CG6044 (GeneID 37558)","dsRNA":"DRSC04522","firefly reporter light, replicate 1":3456,"firefly reporter light, replicate 2":6374,"Renilla control light, replicate 1":528,"Renilla control light, replicate 2":2512,"call":"inactive"}
{"Gene":"CG13658 (GeneID 43055)","dsRNA":"DRSC14659","firefly reporter light, replicate 1":24395,"Renilla control light, replicate 1":19031,"call":"inactive"}
{"Gene":"CG31948 (GeneID 326178)","dsRNA":"DRSC00740","firefly reporter light, replicate 1":3081,"firefly reporter light, replicate 2":7100,"Renilla control light, replicate 1":1200,"Renilla control light, replicate 2":3185,"call":"inactive"}
{"Gene":"MSBP (GeneID 32548)","dsRNA":"DRSC20146","firefly reporter light, replicate 1":1833,"firefly reporter light, replicate 2":7816,"Renilla control light, replicate 1":861,"Renilla control light, replicate 2":2165,"call":"inactive"}
{"Gene":"vig (GeneID 34885)","dsRNA":"DRSC03630","firefly reporter light, replicate 1":4160,"firefly reporter light, replicate 2":9249,"Renilla control light, replicate 1":2428,"Renilla control light, replicate 2":4610,"call":"inactive"}
{"Gene":"vig (GeneID 34885)","dsRNA":"DRSC03631","firefly reporter light, replicate 1":15489,"Renilla control light, replicate 1":1088,"call":"inactive"}
{"Gene":"vig (GeneID 34885)","dsRNA":"DRSC21672","firefly reporter light, replicate 1":7.51e5,"firefly reporter light, replicate 2":7.90e5,"Renilla control light, replicate 1":1.89e5,"Renilla control light, replicate 2":1.57e5,"call":"inactive"}
{"Gene":"CdGAPr (GeneID 35267)","dsRNA":"DRSC03289","firefly reporter light, replicate 1":3028,"firefly reporter light, replicate 2":4137,"Renilla control light, replicate 1":838,"Renilla control light, replicate 2":2411,"call":"inactive"}
{"Gene":"CG15012 (GeneID 38529)","dsRNA":"DRSC08465","firefly reporter light, replicate 1":6516,"Renilla control light, replicate 1":1993,"call":"inactive"}
